Here are results for 2 sequences from US20030013169, “Transcription factor E2F DNA-binding domain inhibitor peptides and their use” (published 2003).

For series [1], the system named is ATF (endogenous, nuclear extract). Kind of series: EMSA. To be noted: binding not inhibited by E2F peptides, protein in an extract, label: 32P fill-in. (Mobility shift assays separate free from complexed probe on a gel.)
The subject of series [2] is Sp1 (endogenous, nuclear extract). Kind of series: EMSA. Particulars: binding not inhibited by E2F peptides, protein in an extract, label: 32P fill-in.

The exact form of at least one protein or probe is not confirmed. Results from cells or extracts need not show a direct contact.

For “CGCCTTGAATGACGTCAAGGCCGCGA (double strand) [ATF probe]”, the binding result in series [1] is listed as “binds”. With “ATGGGGCGGAGA (double strand) [Sp1 probe]”, the binding result in series [2] was “binds”.
